{"source": "paper PMC10604407", "key": {"[1]": {"target": "3HA-PREB (86–328 aa) (human) (UniProt Q9HCU5)", "assay": "co-IP; HEK293T cells co-transfected, 48 h; lysis buffer 50 mM Tris-HCl pH 8.0, 150 mM NaCl, 1% NP-40; lysates with antibodies 3 h, Protein A-agarose 4 °C 3 h, six washes; in Fig. 6B precipitation with HA antibodies, blots with HA and Flag antibodies"}, "[2]": {"target": "T1, 3HA-PREB (human prolactin regulatory element binding protein) (human) (UniProt Q9HCU5)", "T1 sequence": "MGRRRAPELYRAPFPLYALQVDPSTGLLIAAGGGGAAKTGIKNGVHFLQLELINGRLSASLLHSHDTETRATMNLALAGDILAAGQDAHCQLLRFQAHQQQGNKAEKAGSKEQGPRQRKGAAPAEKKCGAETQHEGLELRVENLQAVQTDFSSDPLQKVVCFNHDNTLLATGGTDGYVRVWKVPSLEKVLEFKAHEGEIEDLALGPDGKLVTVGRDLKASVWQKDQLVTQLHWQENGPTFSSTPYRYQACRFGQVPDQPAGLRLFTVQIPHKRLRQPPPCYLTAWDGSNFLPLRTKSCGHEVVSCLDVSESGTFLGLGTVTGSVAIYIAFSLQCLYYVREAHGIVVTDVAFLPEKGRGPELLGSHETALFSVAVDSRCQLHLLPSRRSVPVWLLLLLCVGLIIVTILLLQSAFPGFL", "assay": "co-IP; HEK293T cells co-transfected, 48 h; lysis buffer 50 mM Tris-HCl pH 8.0, 150 mM NaCl, 1% NP-40; lysates with antibodies 3 h, Protein A-agarose 4 °C 3 h, six washes; in Fig. 6B precipitation with HA antibodies, blots with HA and Flag antibodies"}}, "note": "No constants are given. Whether binding was seen depends on the method and setting. Binding seen in cells or lysates may run through a third protein. Some binding calls cover weakened binding; strength is not graded here. Sequences can lack the tags named with a protein."}
{"binder": "Flag-Tas (prototype foamy virus Tas) (protein, UniProt P14353 1-300) MDSYEKEESVASTSGIQDLQTLSELVGPENAGEGELTIAEEPEENPRRPRRYTKREVKCVSYHAYKEIEDKHPQHIKLQDWIPTPEEMSKSLCKRLILCGLYSAEKASEILRMPFTVSWEQSDTDPDCFIVSYTCIFCDAVIHDPMPIRWDPEVGIWVKYKPLRGIVGSAVFIMHKHQRNCSLVKPSTSCSEGPKPRPRHDPVLRCDMFEKHHKPRQKRPRRRSIDNESCASSSDTMANEPGSLCTNPLWNPGPLLSGLLEESSNLPNLEVHMSGGPFWEEVYGDSILGPPSGSGEHSVL", "values": [{"measurement": "binding", "setting": "[1]", "result": "binds weakly"}, {"measurement": "binding", "setting": "[2]", "result": "binds"}]}
